Values from PubChem BioAssay AID1224830 (NIAID, 2016)
Assay: 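Regulators of TLR4 signalling towards TNF-alpha in macrophage-like cells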 (primary screen). System: human THP-1 monocytic leukaemia cells, TNF dual-luciferase reporter clone, PMA-differentiated to macrophage-like cells. Reagents: siRNA pool against human genes, 50 nM. Duration: LPS for 4 h, given about 3 days after siRNA transfection. Conditions: bacterial LPS (TLR4 ligand), 10 ng/ml. Measurement: 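Ratio of firefly to renilla light, scaled to the plate median and expressed as a robust z-score per replicate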. Scale: TNF reporter robust z-score: higher = stronger TNF reporter response to LPS. Rule for the call: 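Each well counts as active if its z-score is over 2.8 or under -1.5; controls are left without a call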.
The deposit covers about 18,000 reagents; shown is an unselected part. In the full data, about 2,900 (16%) are marked active. 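Calls are made per well; low scores hint the gene aids the LPS response, high scores that it dampens it.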 Entries without a mark were called inactive. Repeated entries: four replicate wells of each siRNA pool. Reagent sequences are not shown.

{"gene":"HSPB8 (GeneID 26353)","TNF reporter robust z-score":-0.97}
{"gene":"HSPB8 (GeneID 26353)","TNF reporter robust z-score":-0.02}
{"gene":"HSPB8 (GeneID 26353)","TNF reporter robust z-score":-0.5}
{"gene":"HSPB8 (GeneID 26353)","TNF reporter robust z-score":0.08}
{"gene":"ZNF177 (GeneID 7730)","TNF reporter robust z-score":-0.14}
{"gene":"ZNF177 (GeneID 7730)","TNF reporter robust z-score":0.19}
{"gene":"ZNF177 (GeneID 7730)","TNF reporter robust z-score":-0.24}
{"gene":"ZNF177 (GeneID 7730)","TNF reporter robust z-score":0.14}
{"gene":"FREM2 (GeneID 341640)","TNF reporter robust z-score":-0.92}
{"gene":"FREM2 (GeneID 341640)","TNF reporter robust z-score":-0.84}
{"gene":"FREM2 (GeneID 341640)","TNF reporter robust z-score":-1.03}
{"gene":"FREM2 (GeneID 341640)","TNF reporter robust z-score":-0.38}
{"gene":"RAP2B (GeneID 5912)","TNF reporter robust z-score":"-1.56 (active)"}
{"gene":"RAP2B (GeneID 5912)","TNF reporter robust z-score":-1.15}
{"gene":"RAP2B (GeneID 5912)","TNF reporter robust z-score":"-1.83 (active)"}
{"gene":"RAP2B (GeneID 5912)","TNF reporter robust z-score":-1}
{"gene":"DNAH3 (GeneID 55567)","TNF reporter robust z-score":0.02}
{"gene":"DNAH3 (GeneID 55567)","TNF reporter robust z-score":0.34}
{"gene":"DNAH3 (GeneID 55567)","TNF reporter robust z-score":1.16}
{"gene":"DNAH3 (GeneID 55567)","TNF reporter robust z-score":0.88}
{"gene":"PPM1G (GeneID 5496)","TNF reporter robust z-score":2.59}
{"gene":"PPM1G (GeneID 5496)","TNF reporter robust z-score":1.02}
{"gene":"PPM1G (GeneID 5496)","TNF reporter robust z-score":2.01}
{"gene":"PPM1G (GeneID 5496)","TNF reporter robust z-score":1.61}
{"gene":"DNAJB7 (GeneID 150353)","TNF reporter robust z-score":0.52}
{"gene":"DNAJB7 (GeneID 150353)","TNF reporter robust z-score":0.76}
{"gene":"DNAJB7 (GeneID 150353)","TNF reporter robust z-score":-0.19}
{"gene":"DNAJB7 (GeneID 150353)","TNF reporter robust z-score":0.8}
{"gene":"SLC23A2 (GeneID 9962)","TNF reporter robust z-score":0.07}
{"gene":"SLC23A2 (GeneID 9962)","TNF reporter robust z-score":-0.86}
{"gene":"SLC23A2 (GeneID 9962)","TNF reporter robust z-score":-0.68}
{"gene":"SLC23A2 (GeneID 9962)","TNF reporter robust z-score":0.34}
{"gene":"ATCAY (GeneID 85300)","TNF reporter robust z-score":"4.61 (active)"}
{"gene":"ATCAY (GeneID 85300)","TNF reporter robust z-score":0.47}
{"gene":"ATCAY (GeneID 85300)","TNF reporter robust z-score":-0.14}
{"gene":"ATCAY (GeneID 85300)","TNF reporter robust z-score":1.05}
{"gene":"FOS (GeneID 2353)","TNF reporter robust z-score":-0.85}
{"gene":"FOS (GeneID 2353)","TNF reporter robust z-score":0.55}
{"gene":"FOS (GeneID 2353)","TNF reporter robust z-score":0.62}
{"gene":"FOS (GeneID 2353)","TNF reporter robust z-score":0.7}
{"gene":"CSH2 (GeneID 1443)","TNF reporter robust z-score":0.08}
{"gene":"CSH2 (GeneID 1443)","TNF reporter robust z-score":0.8}
{"gene":"CSH2 (GeneID 1443)","TNF reporter robust z-score":0.77}
{"gene":"CSH2 (GeneID 1443)","TNF reporter robust z-score":1.24}
{"gene":"ZNF530 (GeneID 348327)","TNF reporter robust z-score":-1}
{"gene":"ZNF530 (GeneID 348327)","TNF reporter robust z-score":0.24}
{"gene":"ZNF530 (GeneID 348327)","TNF reporter robust z-score":-0.33}
{"gene":"ZNF530 (GeneID 348327)","TNF reporter robust z-score":-0.23}
{"gene":"ALOX12 (GeneID 239)","TNF reporter robust z-score":"-1.76 (active)"}
{"gene":"ALOX12 (GeneID 239)","TNF reporter robust z-score":-0.04}
{"gene":"ALOX12 (GeneID 239)","TNF reporter robust z-score":1.09}
{"gene":"ALOX12 (GeneID 239)","TNF reporter robust z-score":0.72}
{"gene":"STARD6 (GeneID 147323)","TNF reporter robust z-score":0.43}
{"gene":"STARD6 (GeneID 147323)","TNF reporter robust z-score":0.3}
{"gene":"STARD6 (GeneID 147323)","TNF reporter robust z-score":0.08}
{"gene":"STARD6 (GeneID 147323)","TNF reporter robust z-score":0.72}
{"gene":"EVX2 (GeneID 344191)","TNF reporter robust z-score":-0.13}
{"gene":"EVX2 (GeneID 344191)","TNF reporter robust z-score":0.23}
{"gene":"EVX2 (GeneID 344191)","TNF reporter robust z-score":-0.36}
{"gene":"EVX2 (GeneID 344191)","TNF reporter robust z-score":0.83}

Called active, of those listed so far:
{"gene":"RAP2B (GeneID 5912)","TNF reporter robust z-score":"-1.56 (active)"}
{"gene":"RAP2B (GeneID 5912)","TNF reporter robust z-score":"-1.83 (active)"}
{"gene":"ATCAY (GeneID 85300)","TNF reporter robust z-score":"4.61 (active)"}
{"gene":"ALOX12 (GeneID 239)","TNF reporter robust z-score":"-1.76 (active)"}
